Results taken from article PMC8810010.
Results are given in words; binding and its absence hold for the method and conditions named. Binding seen in cells or lysates may run through a third protein. Some binding calls cover weakened binding; strength is not graded here.

T1: Protein tyrosine phosphatase receptor type O (PTPRO) (human (endogenous in HTR-8/SVneo and JEG-3)) (UniProt Q16827)
T1 sequence: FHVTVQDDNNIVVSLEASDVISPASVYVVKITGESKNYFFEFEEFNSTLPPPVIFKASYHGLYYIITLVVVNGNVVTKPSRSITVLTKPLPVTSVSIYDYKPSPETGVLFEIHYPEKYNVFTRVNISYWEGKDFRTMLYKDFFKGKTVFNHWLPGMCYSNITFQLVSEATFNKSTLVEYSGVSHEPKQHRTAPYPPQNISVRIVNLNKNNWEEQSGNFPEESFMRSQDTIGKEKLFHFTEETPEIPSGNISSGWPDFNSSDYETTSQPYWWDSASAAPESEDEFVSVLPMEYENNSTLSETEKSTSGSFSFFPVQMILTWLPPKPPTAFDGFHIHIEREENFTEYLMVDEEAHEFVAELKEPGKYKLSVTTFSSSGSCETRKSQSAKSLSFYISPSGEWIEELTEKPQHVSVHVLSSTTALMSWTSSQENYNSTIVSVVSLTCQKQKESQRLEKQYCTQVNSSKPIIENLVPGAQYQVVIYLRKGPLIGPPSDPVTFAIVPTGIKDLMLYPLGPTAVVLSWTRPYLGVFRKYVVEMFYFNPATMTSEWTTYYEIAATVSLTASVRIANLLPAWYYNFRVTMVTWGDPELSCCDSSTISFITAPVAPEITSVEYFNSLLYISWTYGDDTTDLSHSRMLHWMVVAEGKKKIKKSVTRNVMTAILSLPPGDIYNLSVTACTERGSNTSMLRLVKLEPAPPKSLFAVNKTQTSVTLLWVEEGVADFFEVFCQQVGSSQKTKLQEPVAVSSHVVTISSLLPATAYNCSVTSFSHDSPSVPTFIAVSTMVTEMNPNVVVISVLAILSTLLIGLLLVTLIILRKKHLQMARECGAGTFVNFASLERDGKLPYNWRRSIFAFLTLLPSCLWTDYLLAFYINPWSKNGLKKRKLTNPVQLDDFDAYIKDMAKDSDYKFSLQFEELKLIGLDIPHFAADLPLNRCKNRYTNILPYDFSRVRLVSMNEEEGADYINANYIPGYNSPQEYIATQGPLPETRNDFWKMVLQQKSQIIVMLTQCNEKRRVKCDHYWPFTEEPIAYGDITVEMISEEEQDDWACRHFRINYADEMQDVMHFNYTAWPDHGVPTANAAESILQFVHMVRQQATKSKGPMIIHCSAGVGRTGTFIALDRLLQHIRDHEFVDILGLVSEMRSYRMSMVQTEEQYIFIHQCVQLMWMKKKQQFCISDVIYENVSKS

T2: ER resident protein 44 (ERp44) (human (endogenous in HTR-8/SVneo and JEG-3)) (UniProt Q9BS26)
T2 sequence: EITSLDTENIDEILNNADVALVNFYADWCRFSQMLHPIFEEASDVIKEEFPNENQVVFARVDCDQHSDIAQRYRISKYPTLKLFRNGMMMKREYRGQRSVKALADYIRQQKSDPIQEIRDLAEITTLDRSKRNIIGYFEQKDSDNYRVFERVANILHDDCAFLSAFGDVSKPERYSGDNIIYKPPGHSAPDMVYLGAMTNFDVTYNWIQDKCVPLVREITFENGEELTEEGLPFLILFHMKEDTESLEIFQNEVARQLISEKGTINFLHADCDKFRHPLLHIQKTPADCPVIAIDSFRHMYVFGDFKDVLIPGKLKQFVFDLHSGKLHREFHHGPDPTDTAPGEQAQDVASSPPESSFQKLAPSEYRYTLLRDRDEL

B1: ER resident protein 44 (ERp44) (protein, UniProt Q9BS26 30-406)
chain: T2 sequence
B2: Protein tyrosine phosphatase receptor type O (PTPRO) (receptor, UniProt Q16827 30-1216)
chain: T1 sequence

Assays:
[1] = target: T1, Protein tyrosine phosphatase receptor type O (PTPRO) (human (endogenous in HTR-8/SVneo and JEG-3)); assay: co-IP; lysates of HTR-8/SVneo and JEG-3 cells (IP lysis buffer); specific antibody or IgG added to the supernatant overnight at 4°C, protein A/G beads 2 h, washed 3 times with lysis buffer, western blot
[2] = target: T2, ER resident protein 44 (ERp44) (human (endogenous in HTR-8/SVneo and JEG-3)); assay: as above

Binder | binding [1] | binding [2]
B1 | binds | 
B2 |  | binds
